## Library screen at single concentrations

Amino acid sequences for entries named in this document (tags omitted). Residues count along the entry.
UniProt Q8IDJ8, 1-583: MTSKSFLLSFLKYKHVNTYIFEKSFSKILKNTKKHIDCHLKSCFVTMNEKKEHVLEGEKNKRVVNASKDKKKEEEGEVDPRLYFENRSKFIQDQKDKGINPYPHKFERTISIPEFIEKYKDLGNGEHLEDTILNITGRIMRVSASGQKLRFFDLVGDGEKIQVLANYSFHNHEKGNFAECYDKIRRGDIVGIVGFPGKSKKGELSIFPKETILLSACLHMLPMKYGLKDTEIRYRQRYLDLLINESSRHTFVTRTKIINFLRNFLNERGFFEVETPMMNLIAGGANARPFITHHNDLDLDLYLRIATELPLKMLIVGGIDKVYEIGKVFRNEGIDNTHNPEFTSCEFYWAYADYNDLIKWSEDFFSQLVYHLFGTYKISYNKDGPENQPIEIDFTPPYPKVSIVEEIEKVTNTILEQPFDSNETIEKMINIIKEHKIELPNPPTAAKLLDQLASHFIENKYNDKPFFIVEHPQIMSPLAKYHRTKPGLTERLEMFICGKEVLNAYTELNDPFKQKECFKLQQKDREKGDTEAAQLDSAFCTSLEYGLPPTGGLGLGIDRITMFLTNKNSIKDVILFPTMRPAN
UniProt I6X8D2, whole entry: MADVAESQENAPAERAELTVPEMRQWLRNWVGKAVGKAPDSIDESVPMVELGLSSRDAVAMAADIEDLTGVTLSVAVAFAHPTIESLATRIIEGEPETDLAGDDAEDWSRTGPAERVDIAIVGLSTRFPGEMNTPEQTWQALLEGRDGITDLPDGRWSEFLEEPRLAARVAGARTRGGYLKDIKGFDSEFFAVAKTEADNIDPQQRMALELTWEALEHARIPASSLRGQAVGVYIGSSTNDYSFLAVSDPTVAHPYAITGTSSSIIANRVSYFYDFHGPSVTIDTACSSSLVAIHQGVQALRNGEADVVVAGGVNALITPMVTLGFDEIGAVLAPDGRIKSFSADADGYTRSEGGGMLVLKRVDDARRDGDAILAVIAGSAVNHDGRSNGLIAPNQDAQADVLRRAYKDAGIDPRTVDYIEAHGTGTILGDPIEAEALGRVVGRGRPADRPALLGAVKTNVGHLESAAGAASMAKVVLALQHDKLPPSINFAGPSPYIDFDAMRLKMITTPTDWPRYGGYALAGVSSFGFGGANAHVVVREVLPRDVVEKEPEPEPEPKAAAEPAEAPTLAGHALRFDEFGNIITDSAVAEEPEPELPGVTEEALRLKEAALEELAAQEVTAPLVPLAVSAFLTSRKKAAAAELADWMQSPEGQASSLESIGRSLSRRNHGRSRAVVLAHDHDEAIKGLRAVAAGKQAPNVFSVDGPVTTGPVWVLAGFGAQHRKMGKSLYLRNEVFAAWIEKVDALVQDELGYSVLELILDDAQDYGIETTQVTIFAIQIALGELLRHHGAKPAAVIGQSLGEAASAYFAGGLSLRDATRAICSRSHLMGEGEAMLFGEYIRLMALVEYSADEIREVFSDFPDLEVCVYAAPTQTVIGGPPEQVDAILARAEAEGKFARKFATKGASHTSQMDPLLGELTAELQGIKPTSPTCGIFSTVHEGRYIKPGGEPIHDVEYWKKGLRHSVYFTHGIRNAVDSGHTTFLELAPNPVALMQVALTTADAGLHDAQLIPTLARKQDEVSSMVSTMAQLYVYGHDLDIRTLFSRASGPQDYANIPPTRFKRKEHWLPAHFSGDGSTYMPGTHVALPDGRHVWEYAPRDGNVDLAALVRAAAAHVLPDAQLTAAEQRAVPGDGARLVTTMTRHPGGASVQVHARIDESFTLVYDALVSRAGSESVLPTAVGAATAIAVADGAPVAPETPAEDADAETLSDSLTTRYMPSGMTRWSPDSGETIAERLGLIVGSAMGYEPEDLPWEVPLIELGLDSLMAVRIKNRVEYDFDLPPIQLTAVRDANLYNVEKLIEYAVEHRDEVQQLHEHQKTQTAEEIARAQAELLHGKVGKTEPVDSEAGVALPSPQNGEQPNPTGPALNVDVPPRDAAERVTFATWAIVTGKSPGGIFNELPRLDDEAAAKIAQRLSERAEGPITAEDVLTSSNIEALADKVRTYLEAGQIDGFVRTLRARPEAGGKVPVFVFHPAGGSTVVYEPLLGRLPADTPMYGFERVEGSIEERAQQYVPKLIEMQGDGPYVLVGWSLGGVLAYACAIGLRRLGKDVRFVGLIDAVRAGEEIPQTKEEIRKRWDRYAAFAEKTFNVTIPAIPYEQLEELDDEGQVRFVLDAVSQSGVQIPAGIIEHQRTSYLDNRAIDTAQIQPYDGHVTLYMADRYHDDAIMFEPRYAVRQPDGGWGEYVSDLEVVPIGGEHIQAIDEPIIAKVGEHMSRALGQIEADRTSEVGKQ
UniProt P9WNZ1, whole entry: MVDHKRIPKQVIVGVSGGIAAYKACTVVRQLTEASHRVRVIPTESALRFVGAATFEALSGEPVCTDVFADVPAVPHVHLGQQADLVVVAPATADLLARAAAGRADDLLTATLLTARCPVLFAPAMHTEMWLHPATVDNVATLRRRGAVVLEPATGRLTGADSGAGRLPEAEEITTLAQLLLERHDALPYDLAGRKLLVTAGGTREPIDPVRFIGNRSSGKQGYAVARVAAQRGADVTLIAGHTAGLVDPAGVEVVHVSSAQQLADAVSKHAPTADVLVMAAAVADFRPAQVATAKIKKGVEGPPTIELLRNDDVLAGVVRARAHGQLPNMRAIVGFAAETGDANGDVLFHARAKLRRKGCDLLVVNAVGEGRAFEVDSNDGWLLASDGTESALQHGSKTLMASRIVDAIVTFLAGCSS
UniProt Q4DA54, 1-478: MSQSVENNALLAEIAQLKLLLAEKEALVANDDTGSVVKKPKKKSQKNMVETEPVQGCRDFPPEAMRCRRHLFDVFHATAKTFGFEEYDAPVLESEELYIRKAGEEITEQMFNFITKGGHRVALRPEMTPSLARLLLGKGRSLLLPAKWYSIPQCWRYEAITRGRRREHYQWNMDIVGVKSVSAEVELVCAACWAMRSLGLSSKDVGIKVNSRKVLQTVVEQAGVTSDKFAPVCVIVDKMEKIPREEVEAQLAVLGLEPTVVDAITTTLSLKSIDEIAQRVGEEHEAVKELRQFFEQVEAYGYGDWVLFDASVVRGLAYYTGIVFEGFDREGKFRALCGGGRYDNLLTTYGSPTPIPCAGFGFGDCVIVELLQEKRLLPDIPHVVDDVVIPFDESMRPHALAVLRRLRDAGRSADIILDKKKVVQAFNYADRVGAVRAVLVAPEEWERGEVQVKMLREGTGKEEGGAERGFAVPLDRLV
UniProt P9WFT3, whole entry: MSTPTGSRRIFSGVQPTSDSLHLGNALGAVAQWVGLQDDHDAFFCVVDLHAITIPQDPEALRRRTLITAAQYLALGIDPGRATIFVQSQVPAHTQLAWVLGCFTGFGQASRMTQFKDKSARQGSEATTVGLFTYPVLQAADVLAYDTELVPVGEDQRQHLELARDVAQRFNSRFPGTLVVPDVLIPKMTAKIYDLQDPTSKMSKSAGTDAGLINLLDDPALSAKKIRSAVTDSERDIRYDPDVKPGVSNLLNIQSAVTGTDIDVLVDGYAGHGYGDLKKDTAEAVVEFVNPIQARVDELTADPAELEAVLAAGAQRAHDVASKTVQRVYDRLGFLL
UniProt P9WPC5, whole entry: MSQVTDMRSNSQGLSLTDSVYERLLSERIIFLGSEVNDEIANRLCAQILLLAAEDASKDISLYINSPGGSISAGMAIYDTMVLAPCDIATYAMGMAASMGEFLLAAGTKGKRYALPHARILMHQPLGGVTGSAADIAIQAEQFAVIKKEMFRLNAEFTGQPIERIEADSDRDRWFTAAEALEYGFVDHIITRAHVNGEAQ
UniProt P9WPC3, whole entry partner: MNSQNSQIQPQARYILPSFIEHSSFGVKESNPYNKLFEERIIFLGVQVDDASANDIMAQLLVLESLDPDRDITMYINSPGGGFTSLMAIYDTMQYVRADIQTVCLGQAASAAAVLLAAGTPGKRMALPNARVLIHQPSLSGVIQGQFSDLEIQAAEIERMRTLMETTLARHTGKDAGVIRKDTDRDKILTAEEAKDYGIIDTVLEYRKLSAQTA

Measurements from “University of Dundee, Small-Polar-MMV Screening Library” (2021), ChEMBL document CHEMBL3988442.

Values are the deposited “Percent Effect”, in %. The record does not define 0% and 100%; most values in the screen are far below 50% and negative numbers occur (in some assays of this library far below -100). Compounds were drawn at random from those tested, without regard to their results. Two or more numbers in one place are separate tests of the same structure; such repeats can differ widely. A dash means the value is not listed here; it may have been measured.

A: 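Lysine-tRNA ligase, Plasmodium falciparum 3D7 (UniProt Q8IDJ8). Enzyme assay of the cytosolic lysyl-tRNA synthetase in 384-well plates, read by luminescence. Compounds at 30 µM. Direction is inferred from only a few compounds that gave an IC50; most scored high, so higher reads as stronger inhibition. Size under these conditions: about 69,000 compounds, about 49 of them at 50% or above in at least one test.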
B: 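Enzyme assay of the thioesterase domain of polyketide synthase 13; the read-out is not stated. Target: Polyketide synthase Pks13, Mycobacterium tuberculosis (UniProt I6X8D2). Concentration: 30 µM. Higher reads as stronger inhibition (inferred from which compounds were picked for retests). About 67,000 compounds were tested under these conditions; 0.46% (about 300) showed 50% or more at least once.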
C: 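Enzyme assay of CoaBC with a phosphate dye (Biomol Green) read at 650 nm. Target: Coenzyme A biosynthesis protein CoaBC, Mycobacterium tuberculosis (UniProt P9WNZ1). Concentration: 30 µM. Direction is inferred from only a few compounds that gave an IC50; most scored high, so higher reads as stronger inhibition. Most strong results did not repeat in a second test. Size under these conditions: about 67,000 compounds, about 40 of them at 50% or above in at least one test.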
D: 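Histidine-tRNA ligase, Trypanosoma cruzi CL Brener (UniProt Q4DA54). Enzyme assay of histidyl-tRNA synthetase; the read-out is not stated. Compounds at 30 µM. Direction is inferred from retests: higher values go with stronger inhibition. Of about 69,000 compounds tested this way, about 31 (0.045%) reached 50% or more in at least one test.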
E: 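Enzyme assay of tryptophanyl-tRNA synthetase; the read-out is not stated. Target: Tryptophan-tRNA ligase, Mycobacterium tuberculosis (UniProt P9WFT3). Tested at 10 µM. Direction is not recorded; retested compounds ran higher, which suggests that high means inhibition. Size under these conditions: about 65,000 compounds, about 64 of them at 50% or above in at least one test.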
F: 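ClpP1P2, Mycobacterium tuberculosis (UniProt P9WPC5 and UniProt P9WPC3). Protease assay of ClpP1P2, read by the AMC dye that it sets free. Tested at 50 µM. Higher reads as stronger inhibition, judged from the few compounds that gave an IC50. Most other retested compounds had strongly negative values. Of about 69,000 compounds tested this way, about 10 (0.015%) reached 50% or more in at least one test.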

SMILES	A	B	C	D	E	F
CN(CCn1cncc1-c1cnc(N2CCOCC2)nc1)C1CCCC1	2.158	-8.625	2.906	1.13	-2.807	-17.7
Cc1cnn(Cc2ccc(NC(=O)N3CCCC3)cc2)c1	5.767	-20.23	10.58 and 22.2	3.097	3.745	-11.93
O=C(O)c1c[nH]c2cc(NS(=O)(=O)c3cccc(F)c3F)ccc12	-1.66	-1.93	12.43	15.43	3.191	-13.11
Cc1ccc(CN2Cc3c(C(=O)N4CCN(C)CC4)nn(C)c3C2)s1	6.08	-4.363	1.85	3.509	-3.604	-18.18
Cc1nc(-c2noc3ccc(C(=O)NCCN(C)C)cc23)co1	8.838	-19	-10.24	0.9804	0.000008	-10.34
Cc1csc([C@@H]2C[C@@H]3CCN(C(=O)c4cc(C)on4)C[C@H]3O2)n1	0.3329	-13.77	0.6337	1.087	-8.049	0.5241
CNc1cccc(C2CCCN(C(C)=O)C2)n1 (stereo not shown)	2.419	2.047	3.796	4.301	-0.9167	3.114
Cc1cccc(C(=O)NCc2cccnc2N(C)C)n1	2.845	-35.39	1.316	3.226	2.406	1.801
CCc1nc(CN2CCCN(C(=O)C(C)COC)CC2)cs1 (stereo not shown)	2.098	-13.7	3.614	-0.7634	-0.3997	21.75
CCn1cnc(NC(=O)NCC2CCS(=O)(=O)CC2)n1	-3.475	-9.539	0.6711	0	1.876	3.119
CN(CC1COc2ccccc2O1)C(=O)CCn1cncn1 (stereo not shown)	1.11	-7.049	3.422	7.101	-0.4394	-18.23
Cc1nc(CN2CCCC(NCc3sccc3C)C2)no1 (stereo not shown)	-0.7073	-19.34	4.774	3.448	5.55	-16.69
CCN(Cc1ccc(N(C)C)cc1)S(=O)(=O)c1cc(Br)ccc1OC	2.818	-13.47	-1.911	3.867	-1.943	8.719
O=C(O)c1cc2c(nc1N1CCCC1)CCN(C1CCOCC1)CC2	-2.141	14.39	-6.526	1.075	8.207	11.06
CC(C)c1nnc2n1CCN(Cc1csc(CC(=O)N(C)C)n1)C2	-9.253	-3.382	-5.053	-0.3802	-5.031	34.4
COc1c(C2CCCN2C(=O)c2nccnc2N)c(C)nn1C (stereo not shown)	-0.02755	21.84	5.342	0.2865	-4.401	-22.34
CC(=O)Nn1ccc2c(nnc3c(-c4ccccc4)cnn32)c1=O	1.83	-3.1	2.384	1.493	4.285	-16.15
COCC(O)CN1CCC(NC(=O)c2cscc2C)CC1 (stereo not shown)	0.4185	-46.81	-	8.28	2.119	4.646
COCC1CC2(CCN(Cc3ccoc3)CC2)CN1C(C)C (stereo not shown)	0.3382	3.76	9.244	2.479	-2.092	-0.6454
CC(C)N1C(=O)C[C@H]2[C@@H]1CCN2C(=O)c1ccco1	-5.04	-39.95	-2.709	-6.186	3.189	-3.418
CC(C)c1cc(N(C)Cc2noc(C3CCCC3)n2)n2nccc2n1	4.026	-3.896	11.9	-0.8	-2.093	-8.482
Cc1nn(C)c(C)c1C(=O)N1CCN(c2ccncc2Cl)CC1	-0.6916	-7.63	9.091	7	4.993	-9.217
CC(=O)N1CCOC(Cc2cccc(C(F)(F)F)c2)C1 (stereo not shown)	1.493	-30.9	-18.52	2.186	-5.383	-8.038
Cc1cnn(CC(C)NCc2ccc(OCc3cscn3)cc2)c1 (stereo not shown)	1.917	13.4	3.181	3.944	-4.601	-11.87
N#Cc1cccc(OCCN2CCC(C(=O)N3CCOCC3)CC2)c1	2.02	-27.13	8.4	2.299	-10.47	0.3998
Cc1cc(N2CCC(N(C)C(=O)c3ccc(C#N)cc3)CC2)nc(C)n1	-4.295	-8.662	1.139	6.098	-3.943	6.547
CN1CC=C(c2noc(CCC(=O)N3CCOCC3)n2)CC1	5.097	0.4758	1.266	7.317	1.431	-6.483
Cc1noc(CCCC(=O)NC(C)c2nnc3n2CCCCC3)n1 (stereo not shown)	4.082	-32.92	-6.438	1.163	-2.551	4.279
CCN1CCC(CNCc2cc(C)ccc2OC)C1 (stereo not shown)	4.018	-19.06	-5.556	-1.724	-4.701	10.91
CC(C)[C@H]1COC(=O)N1Cc1noc(-c2ccccc2)n1	0.8241	-	3.218	9.639	3.389	-14.61
CCc1noc(C)c1C(=O)NCC(c1ccc(C)cc1)N(C)C (stereo not shown)	-1.066	-20.7	8.842	6.122	-4.644	-27.07
c1cnn(Cc2cnc3n2CCN(CC2CCCCC2)C3)c1	-1.115	-14.49	6.853	11.82	-7.325	8.103
Cn1cnc2c1C(COCC1CC1)CN(C(=O)c1ccsc1)C2 (stereo not shown)	-2.662	-4.945	6.526	-1.075	16.81	-8.227
CN1C(Cn2cccn2)C[C@@H]2CN(Cc3ccccn3)CC[C@@H]21 (stereo partly shown)	3.374	0.06098	-8.3	-3	1.187	-10.72
CCN(Cc1c(F)cccc1Cl)c1cc(C2CCNCC2)nc(C)n1	6.527	-17.47	-14.05	11	3.231	-22.26
O=C(Nc1ccccc1OC(F)(F)F)C1CCS(=O)(=O)C1 (stereo not shown)	0.03343	-39.2	5.353	1.571	-6.358	8.017
Cc1cc(C)n(C2CCCN(C(=O)c3cc(C4CC4)on3)C2)n1 (stereo not shown)	2.6	-11.17	-6.667	-0.3774	5.082	7.086
Cc1ccsc1CN(CCN(C)C)C(=O)c1ccccc1C#N	4.649	4.264	-0.9346	8.696	-4.843	-14.09
COc1ccc(CCN)cc1-c1ccc(C(N)=O)cc1	4.527	-37.41	-35.24	13.81	-0.4914	1.323
O=C(CCC1CCCO1)NCCN1CCCCC1 (stereo not shown)	0.9557	13.57	4.791	1.19	0.5747	-3.709
CC(C)NC(=O)N1CCOC2(CCCN(c3ncccc3F)C2)C1 (stereo not shown)	6.066	-14.24	2.588	-1.442	-2.322	-6.072
COCC(=O)N1CCC2(CC1)NC(=O)[C@H]1CN(C(=O)N(C)C)C[C@H]12	2.914	-18.96	5.089	7.767	-5.255	-0.386
Fc1cnc(N2CCC3(COCc4cnc(NCC5CC5)nc43)C2)nc1 (stereo not shown)	-1.955	1.281	1.505	2.479	1.234	-13.49
CCN(Cc1cccc(Cl)c1)Cn1nc(C)c2c(C)onc2c1=O	-1.276	-11.98	-2.017	3.759	-3.834	-1.711
CN(C)CCN(C)C(=O)c1ccccc1-n1cc(CN(C)C)cn1	0.00768	5.558	1.946	7.463	-2.145	8.369
Cc1cc(C)n(CC2CN(CCC(=O)NC3CCCCC3)CCO2)n1 (stereo not shown)	-0.9768	-7.428	4.258	6.322	-2.921	-14.02
CCn1ccnc1CN1CCN(C(C)C(=O)NC2CCCC2)CC1 (stereo not shown)	1.134	-24.38	7.673	4.118	-7.904	-32.79
Cc1nc(-c2ccc(CC(=O)N3CCNC(=O)C3)cc2)cs1	-4.537	5.303	-8.266	2.174	4.642	-0.002954
CCc1csc(C2CCCN(C(=O)c3ccc(OC)nc3)C2)n1 (stereo not shown)	1.718	-6.331	14.53	0.8333	0.4946	-12.42
Cn1nnnc1SCCNC(=O)c1c[nH]nc1C1CCCCC1	2.849	-33.92	-3.415	9.091	0.8489	8.094
CCn1nc(C)c2nc(C(C)C)nc(NCC(=O)N3CCOCC3)c21	0.9168	-4.953	0	8.696	1.943	13.83
O=C(c1ccco1)N1CCCC(c2cc(C(F)(F)F)n3ncnc3n2)C1 (stereo not shown)	2.315	5.007	-0.7264	6.667	-	22.61
COC(=O)CCN(CC1CCOC1)C1CC1 (stereo not shown)	1.008	-18.36	0.8403	2.222	-3.087	-0.6151
Cc1cccc(CNC(Cn2cncn2)c2ccccc2)c1C (stereo not shown)	3.242	-9.188	5.909	2.703	-4.312	-6.389
COc1ccc(N(Cc2ccco2)C(=O)C2CCCO2)cc1F (stereo not shown)	4.663	-20.45	3.666	10.05	0.892	-8.252

Repeated from the top, 6 entries:

* CN(CCn1cncc1-c1cnc(N2CCOCC2)nc1)C1CCCC1 : A: 2.158%; B: -8.625%; C: 2.906%; D: 1.13%; E: -2.807%; F: -17.7%
* Cc1cnn(Cc2ccc(NC(=O)N3CCCC3)cc2)c1 : A: 5.767%; B: -20.23%; C: 10.58% and 22.2%; D: 3.097%; E: 3.745%; F: -11.93%
* O=C(O)c1c[nH]c2cc(NS(=O)(=O)c3cccc(F)c3F)ccc12 : A: -1.66%; B: -1.93%; C: 12.43%; D: 15.43%; E: 3.191%; F: -13.11%
* Cc1ccc(CN2Cc3c(C(=O)N4CCN(C)CC4)nn(C)c3C2)s1 : A: 6.08%; B: -4.363%; C: 1.85%; D: 3.509%; E: -3.604%; F: -18.18%
* Cc1nc(-c2noc3ccc(C(=O)NCCN(C)C)cc23)co1 : A: 8.838%; B: -19%; C: -10.24%; D: 0.9804%; E: 0.000008%; F: -10.34%
* Cc1csc([C@@H]2C[C@@H]3CCN(C(=O)c4cc(C)on4)C[C@H]3O2)n1 : A: 0.3329%; B: -13.77%; C: 0.6337%; D: 1.087%; E: -8.049%; F: 0.5241%